This list was built around the results that the source calls inconclusive (neither active nor inactive); the mix of calls is not that of the screen. Potencies beside an inconclusive call are fits to weak or partial responses and may not hold up. Calls of active or inactive are those of the source. Calls come from the whole dose curve; as a rule, active = well fitted cell-killing curve with a large enough effect; inconclusive = small, poorly fitted or top-dose-only effect, or effect the other way; inactive = no such curve, though single readings can be large or run the other way.
Experiment: Quantitative High-Throughput drug screen in 47 multiple myeloma cell lines against the NCATS MIPE library collection: ARD_JJKsccE7 cell viability assay (AID 1918929)
Conditions: ARD myeloma cell line viability, CellTiter-Glo, 48 h; series mostly up to 45.8 µM
Source text: PI: Beverly A. Mock Ph.D.
Laboratory of Cancer Biology and Genetics,
Center for Cancer Research, National Cancer Institute,
National Institute of Health, Bethesda, Maryland
Drug resistance and disease progression are common in multiple myeloma (MM) patients, underscoring the need for new therapeutic combinations. […] We hypothesized that effective combinations would reduce MYC expression and enhance p16 activity. […] These preclinical data identify potentially useful drug combinations for evaluation in drug-resistant MM and reveal potential mechanisms of combined drug sensitivity.
Described herein is the primary MIPE qHTS used to cherrypick compounds. Validated compounds were then further tested for potential synergistic activiy.
[1] Peat TJ, Gaikwad SM, Dubois W, Gyabaah-Kessie N, Zhang S, Gorjifard S, Phyo Z, Andres M, Hughitt VK, Simpson RM, Miller MA, Girvin AT, Taylor A, Williams D, D'Antonio N, Zhang Y, Rajagopalan A, Flietner E, Wilson K, Zhang X, Shinn P, Klumpp-Thomas C, McKnight C, Itkin Z, Chen L, Kazandijian D, Zhang J, Michalowski AM, Simmons JK, Keats J, Thomas CJ, Mock BA. Drug combinations identified by high-throughput screening promote cell cycle transition and upregulate Smad pathways in myeloma. Cancer Lett. 2023 Aug 1;568:216284. doi: 10.1016/j.canlet.2023.216284. Epub 2023 Jun 24. PMID: 37356470; PMCID: PMC10408729.
SEQUENCE No. (e.g., 1, 2, 3, etc.); […] (e.g., Cells, Incubation, Reagent, etc.); VALUE and DESCRIPTION.
1; Cells; 5 uL; white, solid bottom 1536-well Greiner assay plate.
2; Compounds; 23 nL; Kalypsis pin tool (Wako USA) equipped with a 1536-well pin head to transfer to the assay plates.
3; Incubation; 48 hours; 37C incubation.
4; Reagent;5uL; CellTiter Glo (Promega).
5; Detector; 425V; Luminescence; Viewlux PerkinElmer.
NOTES (numbers refer to Sequence numbers above)
1. The cell-based screening methods employed in this study were like those previously published. Briefly, the corresponding myeloma cell lines were screened in 1,536-well plates with 500 cells, 5-uL per well for inhibition of cell viability (assessed by measuring ATP levels with CellTiterGlo).
2. NCATS MIPE 4.0 library of approved and investigational drugs were added using the Kalypsis pin tool. Wells treated with DMSO only for 100% viability and media only wells for 0% viability were used as controls.
3. The assay plates were covered and incubated for 48 hours in a 37C, 5% CO2 incubator with controlled humidity.
4. After 48 hours, CellTilter-GloTM luminescent substrate mix (Promega) reagent was added to the assay plate and plates we incubated for 5 min at room temperature.
5. Signal was measured as median relative luminescence units on a ViewLux (PerkinElmer) multiplate reader.
[1] Heske CM, Davis MI, Baumgart JT, Wilson K, Gormally MV, Chen L, Zhang X, Ceribelli M, Duveau DY, Guha R, Ferrer M, Arnaldez FI, Ji J, Tran HL, Zhang Y, Mendoza A, Helman LJ, Thomas CJ. Matrix Screen Identifies Synergistic Combination of PARP Inhibitors and Nicotinamide Phosphoribosyltransferase (NAMPT) Inhibitors in Ewing Sarcoma. Clin Cancer Res. 2017 Dec 1;23(23):7301-7311. doi: 10.1158/1078-0432.CCR-17-1121. Epub 2017 Sep 12. PMID: 28899971; PMCID: PMC6636827.
Potency is the fitted concentration of half-maximal effect.

Row | Compound | Potency
1 | CC1(C)CNc2cc(NC(=O)c3cccnc3NCc3ccncc3)ccc21 | inactive
2 | COc1ccc(C2=N[C@H](c3ccc(Cl)cc3)[C@H](c3ccc(Cl)cc3)N2C(=O)N2CCNC(=O)C2)c(OC(C)C)c1 | inactive
3 | O=C(NCc1ccccc1)[C@H](Cc1ccccc1)NC(=O)[C@@H]1O[C@@H]1C(=O)NCCc1ccc(O)cc1 | inconclusive: 37200 nM [cytotoxic, single point]
4 | CN1CCC(CNc2ccc3ncc(-c4cccc(OC(F)(F)F)c4)n3n2)CC1 | active: 11800 nM
5 | CS(=O)(=O)c1cccc(CNc2nc(Nc3ccc4c(c3)CCC(=O)N4)ncc2C(F)(F)F)c1 | active: 5900 nM
6 | CN1C[C@H]2c3ccccc3Oc3ccc(Cl)cc3[C@@H]2C1 | inconclusive: 1.7 nM [cytotoxic, full curve, poor fit]
7 | Nc1cccc(-c2cc3c(Oc4cccc(O)c4)ncnc3[nH]2)c1 | inactive
8 | CC(=O)NC(C)c1ccc(Oc2ccc(OC(C)C)cc2)cc1 (stereo not given) | inconclusive: 148 nM [cytotoxic, full curve, poor fit]
9 | C[C@@H]1CN(CC(=O)Nc2ccc3c(c2)Cc2cccc(-c4cc(=O)cc(N5CCOCC5)o4)c2S3)C[C@H](C)O1 | active: 18700 nM
10 | Cc1cnc(Nc2ccc(CN3CCOCC3)cc2)nc1Nc1cccc(S(=O)(=O)NC(C)(C)C)c1 | inconclusive: 37200 nM [cytotoxic, single point]
11 | COc1cc2c(Oc3ccc(-c4cnc(Nc5ccc(F)cc5)n(C)c4=O)cc3F)ccnc2cc1OCCCN1CCOCC1 | inconclusive: 743 nM [cytotoxic, full curve, poor fit]
12 | CC(NCc1ccc2c(c1)nc(NC(=O)c1ccc(-c3cn[nH]c3)s1)n2CC(C)(C)O)C(C)(C)C (stereo not given) | active: 296 nM
13 | CC(C)C[C@H](NC(=O)CNC(=O)c1cc(Cl)ccc1Cl)B(O)O | active: 74.3 nM
14 | CC(=O)Nc1sc2c(c1-c1nc3ccccc3s1)CNC2 | inconclusive: 1870 nM [cytotoxic, partial curve, poor fit]
15 | Cc1c(CN2CCN(C(=O)C(C)C)CC2)sc2c(N3CCOCC3)nc(-c3cnc(N)nc3)nc12 | inconclusive: 105 nM [cytotoxic, full curve]
16 | Nc1nc(NCCNc2ncc(-n3ccnc3)c(-c3ccc(Cl)cc3Cl)n2)ccc1[N+](=O)[O-] | active: 6620 nM
17 | C[C@@]12O[C@@H](C[C@]1(O)CO)n1c3ccccc3c3c4c(c5c6ccccc6n2c5c31)CNC4=O | inconclusive: 209 nM [cytotoxic, full curve, poor fit]
18 | CCN(CC)CC#CCOC(=O)C(O)(c1ccccc1)C1CCCCC1 (stereo not given) | inconclusive: 29600 nM [cytotoxic, single point]
19 | CC[C@@H]1C(=O)N(C)c2cnc(Nc3ccc(C(=O)NC4CCC(N5CCN(CC6CC6)CC5)CC4)cc3OC)nc2N1C(C)C (stereo not given in full) | active: 83.3 nM
20 | CN1CCc2c(c3ccccc3n2Cc2ccc(C(=O)NO)cc2)C1 | inconclusive: 37200 nM [cytotoxic, single point]

Gathered by group: those above containing a tert-butyl group
Row | Compound | Potency
10 | Cc1cnc(Nc2ccc(CN3CCOCC3)cc2)nc1Nc1cccc(S(=O)(=O)NC(C)(C)C)c1 | inconclusive: 37200 nM [cytotoxic, single point]
12 | CC(NCc1ccc2c(c1)nc(NC(=O)c1ccc(-c3cn[nH]c3)s1)n2CC(C)(C)O)C(C)(C)C (stereo not given) | active: 296 nM

The results go on:

Row | Compound | Potency
21 | C=C1C(=CC=C2CCC[C@]3(C)[C@@H]([C@H](C)C=C[C@H](C)C(C)C)CC[C@@H]23)C[C@@H](O)C[C@@H]1O | active: 332 nM
22 | Cc1[nH]c2ccccc2c1CCNCc1ccc(C=CC(=O)NO)cc1 | inconclusive: 118 nM [cytotoxic, full curve, poor fit]
23 | COC(=O)[C@]12CCC(C)(C)C[C@@H]1[C@@H]1C(=O)C=C3[C@@]4(C)C=C(C#N)C(=O)C(C)(C)[C@@H]4CC[C@@]3(C)[C@]1(C)CC2 | active: 662 nM
24 | COC(=O)C=CC(=O)OC | active: 1180 nM
25 | COc1cccc2cc(-c3nc(C4CCC(C(=O)O)CC4)n4ncnc(N)c34)[nH]c12 (stereo not given) | inconclusive: 74.3 nM [cytotoxic, full curve]
26 | CN[C@@H]1C[C@H]2O[C@@](C)([C@H]1OC)n1c3ccccc3c3c4c(c5c6ccccc6n2c5c31)C(=O)N[C@H]4O | active: 148 nM
27 | COc1cc(C)c(Sc2cnc(NC(=O)c3ccc(CNC(C)C(C)(C)C)cc3)s2)cc1C(=O)N1CCN(C(C)=O)CC1 (stereo not given) | active: 4690 nM
28 | CC(C)(C)c1nc2c3cc[nH]c(=O)c3c3cc(F)ccc3c2[nH]1 | inconclusive: 3320 nM [rising, full curve, poor fit]
29 | NC(=O)c1c(OCc2c(F)cc(Br)cc2F)nsc1NC(=O)NCCCCN1CCCC1 | inactive
30 | CC(C)(C)c1cnc(CSc2cnc(NC(=O)C3CCNCC3)s2)o1 | active: 235 nM
31 | CCC[C@H](NC(=O)C(C#N)=Cc1cccc(Br)n1)c1ccccc1 | inconclusive: 10500 nM [cytotoxic, single point]
32 | NC(=O)c1cccc2cn(-c3ccc([C@@H]4CCCNC4)cc3)nc12 | inconclusive: 6620 nM [cytotoxic, partial curve, poor fit]
33 | Cn1cncc1[C@@](N)(c1ccc(Cl)cc1)c1ccc2c(c1)c(-c1cccc(Cl)c1)cc(=O)n2C | inconclusive: 9350 nM [cytotoxic, partial curve]
34 | COc1ccc(C=Cc2cc(OC)c(OC)c(OC)c2)cc1O | inactive
35 | NCCc1ccc(O)c(O)c1 | inconclusive: 37200 nM [cytotoxic, single point]
36 | CC(C)OC(=O)C1=CN(C(=O)c2ccc(F)c(F)c2)CC(C)(C)c2c1[nH]c1ccccc21 | inactive
37 | C[C@H](NC(=O)Cc1cc(F)cc(F)c1)C(=O)N[C@@H]1C(=O)N(C)c2ccccc2-c2ccccc21 | inconclusive: 18700 nM [cytotoxic, partial curve, poor fit]
38 | Cn1c(=O)n(-c2ccc(C(C)(C)C#N)cc2)c2c3cc(-c4cnc5ccccc5c4)ccc3ncc21 | inconclusive: 418 nM [cytotoxic, full curve]
39 | O=NN(CCCl)C(=O)NC1CCCCC1 | inactive
40 | Cc1cnc(NC(=O)Nc2cc(Br)c(C)cc2OC[C@@H]2CNCCO2)cn1 | active: 1180 nM
